Some of the results follow. The data scatter; read single values as rough.
Assays:
[1] = compound: ClCC(=O)N[C@@H]1CCCc2ccccc12; test: log2 mean competition ratio of IA-DTB cysteine labelling (DMSO/compound) (log2 ratio); higher = stronger cysteine engagement by compound; conditions: treatment time: 4 h, cell line lysate: HEK293T
Description: (§1)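 IA-DTB competitive cysteine chemoproteomics in HEK293T RIPA lysate. Lysates were treated with compound 29 or 30 at 50 or 200 µM for 4 h, then IA-DTB (500 µM, 1 h), trypsin-digested, NeutrAvidin-enriched and analysed by diaPASEF. Competition ratio = intensity DMSO / intensity compound (n=4 treated, n=64 DMSO); binding: mean log2 CR ≥ 1 and p ≤ 0.05 plus QC filters. Target is the cysteine site.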

Chains of the proteins cited; added tags and fusions are not shown. Lines headed by an entry give the natural chain unless they say otherwise; changes in a name come on top. Residues count along the entry.
UniProt Q99986, 220-240: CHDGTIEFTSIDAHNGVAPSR
UniProt Q9H6S0, 1255-1275: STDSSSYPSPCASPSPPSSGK
UniProt Q9HAV4, 1113-1132: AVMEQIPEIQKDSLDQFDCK
UniProt Q9UID3: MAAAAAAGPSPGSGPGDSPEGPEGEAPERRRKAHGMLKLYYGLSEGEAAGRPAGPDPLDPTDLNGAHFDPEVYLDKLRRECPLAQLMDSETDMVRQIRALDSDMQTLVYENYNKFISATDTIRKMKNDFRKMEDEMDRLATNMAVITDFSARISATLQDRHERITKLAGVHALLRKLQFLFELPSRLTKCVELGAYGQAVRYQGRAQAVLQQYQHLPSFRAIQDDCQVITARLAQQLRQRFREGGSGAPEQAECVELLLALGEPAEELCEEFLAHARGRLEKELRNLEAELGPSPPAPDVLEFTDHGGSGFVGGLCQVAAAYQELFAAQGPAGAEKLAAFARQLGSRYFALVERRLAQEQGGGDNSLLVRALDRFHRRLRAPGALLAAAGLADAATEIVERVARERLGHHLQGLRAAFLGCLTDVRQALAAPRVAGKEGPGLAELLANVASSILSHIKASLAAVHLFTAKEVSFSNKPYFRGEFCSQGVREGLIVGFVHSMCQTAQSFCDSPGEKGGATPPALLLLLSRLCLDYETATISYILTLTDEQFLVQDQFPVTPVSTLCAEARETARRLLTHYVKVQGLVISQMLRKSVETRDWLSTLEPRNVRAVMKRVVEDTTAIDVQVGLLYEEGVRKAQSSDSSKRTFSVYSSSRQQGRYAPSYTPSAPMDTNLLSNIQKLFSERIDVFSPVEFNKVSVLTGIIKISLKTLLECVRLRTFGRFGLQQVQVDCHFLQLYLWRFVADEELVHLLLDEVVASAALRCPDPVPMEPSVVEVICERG
UniProt Q9ULJ3, 361-383: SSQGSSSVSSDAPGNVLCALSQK
UniProt Q8IZH2, 392-413: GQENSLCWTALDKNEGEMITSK
UniProt Q9Y3S1: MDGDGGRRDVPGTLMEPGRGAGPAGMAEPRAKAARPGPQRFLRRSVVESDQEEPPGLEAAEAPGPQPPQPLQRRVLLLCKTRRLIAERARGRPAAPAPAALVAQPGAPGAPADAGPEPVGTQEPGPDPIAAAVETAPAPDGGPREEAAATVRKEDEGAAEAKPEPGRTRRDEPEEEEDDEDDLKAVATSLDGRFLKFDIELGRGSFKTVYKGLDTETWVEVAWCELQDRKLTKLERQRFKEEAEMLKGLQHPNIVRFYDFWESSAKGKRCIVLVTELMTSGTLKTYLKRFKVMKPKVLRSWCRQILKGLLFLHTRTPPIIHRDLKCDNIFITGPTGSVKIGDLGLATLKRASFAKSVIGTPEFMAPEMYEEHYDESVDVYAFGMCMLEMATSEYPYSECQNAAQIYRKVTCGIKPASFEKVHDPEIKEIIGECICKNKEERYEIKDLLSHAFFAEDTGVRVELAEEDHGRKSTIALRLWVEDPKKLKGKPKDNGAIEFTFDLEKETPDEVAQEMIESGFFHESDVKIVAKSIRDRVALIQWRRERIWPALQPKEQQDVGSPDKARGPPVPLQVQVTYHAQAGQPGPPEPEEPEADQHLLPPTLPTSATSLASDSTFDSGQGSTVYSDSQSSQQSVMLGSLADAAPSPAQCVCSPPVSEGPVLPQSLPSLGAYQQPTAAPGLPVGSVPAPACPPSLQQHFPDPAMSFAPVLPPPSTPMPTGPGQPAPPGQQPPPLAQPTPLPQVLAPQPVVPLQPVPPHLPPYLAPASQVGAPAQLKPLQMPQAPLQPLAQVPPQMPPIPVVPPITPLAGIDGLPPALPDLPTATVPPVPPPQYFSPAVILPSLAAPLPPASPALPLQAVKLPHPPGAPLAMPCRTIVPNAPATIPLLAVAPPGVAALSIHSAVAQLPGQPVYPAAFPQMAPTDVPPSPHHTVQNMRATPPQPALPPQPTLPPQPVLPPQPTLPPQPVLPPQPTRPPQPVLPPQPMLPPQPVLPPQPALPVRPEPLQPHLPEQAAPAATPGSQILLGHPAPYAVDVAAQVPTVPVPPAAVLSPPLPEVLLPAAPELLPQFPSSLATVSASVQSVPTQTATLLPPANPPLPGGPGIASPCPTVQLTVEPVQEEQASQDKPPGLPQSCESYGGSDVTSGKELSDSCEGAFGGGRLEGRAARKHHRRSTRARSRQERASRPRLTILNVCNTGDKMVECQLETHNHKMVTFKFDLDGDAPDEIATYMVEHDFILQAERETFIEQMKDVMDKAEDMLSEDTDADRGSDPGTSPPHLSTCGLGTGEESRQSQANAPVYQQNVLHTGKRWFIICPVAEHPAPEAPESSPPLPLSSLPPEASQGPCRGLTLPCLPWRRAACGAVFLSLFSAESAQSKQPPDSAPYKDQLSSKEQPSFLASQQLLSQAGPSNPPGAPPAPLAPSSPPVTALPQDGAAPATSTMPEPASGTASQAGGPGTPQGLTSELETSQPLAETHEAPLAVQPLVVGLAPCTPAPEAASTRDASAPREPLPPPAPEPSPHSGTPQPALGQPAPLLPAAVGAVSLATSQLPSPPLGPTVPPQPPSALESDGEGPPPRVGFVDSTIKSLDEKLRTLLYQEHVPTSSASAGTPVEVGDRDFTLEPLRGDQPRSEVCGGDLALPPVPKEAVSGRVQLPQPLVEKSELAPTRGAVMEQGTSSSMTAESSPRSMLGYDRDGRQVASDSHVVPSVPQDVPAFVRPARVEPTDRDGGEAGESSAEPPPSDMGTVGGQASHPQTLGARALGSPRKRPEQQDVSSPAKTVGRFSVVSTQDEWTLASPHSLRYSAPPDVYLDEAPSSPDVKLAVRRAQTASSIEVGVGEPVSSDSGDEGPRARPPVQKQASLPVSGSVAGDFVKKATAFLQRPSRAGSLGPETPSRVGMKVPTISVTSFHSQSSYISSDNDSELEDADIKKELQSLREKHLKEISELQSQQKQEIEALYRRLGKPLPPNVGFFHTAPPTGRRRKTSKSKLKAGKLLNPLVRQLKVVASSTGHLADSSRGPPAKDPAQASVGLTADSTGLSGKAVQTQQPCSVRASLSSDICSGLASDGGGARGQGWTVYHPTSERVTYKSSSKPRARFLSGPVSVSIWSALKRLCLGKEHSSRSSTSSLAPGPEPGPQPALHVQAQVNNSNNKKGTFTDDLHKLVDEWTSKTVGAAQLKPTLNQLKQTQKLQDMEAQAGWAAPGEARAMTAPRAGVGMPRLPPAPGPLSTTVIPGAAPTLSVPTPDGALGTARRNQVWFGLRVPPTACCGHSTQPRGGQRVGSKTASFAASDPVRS
UniProt Q9Y4P8, 417-439: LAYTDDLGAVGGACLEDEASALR
UniProt Q9Y4P8, 375-406: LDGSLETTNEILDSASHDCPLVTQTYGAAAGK
UniProt A8MPS7: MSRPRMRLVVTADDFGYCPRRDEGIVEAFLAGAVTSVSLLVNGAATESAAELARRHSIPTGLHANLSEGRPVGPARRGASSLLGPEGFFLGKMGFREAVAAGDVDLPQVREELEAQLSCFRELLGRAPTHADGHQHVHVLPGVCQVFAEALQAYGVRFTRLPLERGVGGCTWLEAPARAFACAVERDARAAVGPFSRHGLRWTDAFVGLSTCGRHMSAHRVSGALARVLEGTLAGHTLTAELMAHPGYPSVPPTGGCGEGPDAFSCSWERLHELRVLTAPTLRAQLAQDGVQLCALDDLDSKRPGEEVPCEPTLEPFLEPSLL
UniProt Q9BYP7: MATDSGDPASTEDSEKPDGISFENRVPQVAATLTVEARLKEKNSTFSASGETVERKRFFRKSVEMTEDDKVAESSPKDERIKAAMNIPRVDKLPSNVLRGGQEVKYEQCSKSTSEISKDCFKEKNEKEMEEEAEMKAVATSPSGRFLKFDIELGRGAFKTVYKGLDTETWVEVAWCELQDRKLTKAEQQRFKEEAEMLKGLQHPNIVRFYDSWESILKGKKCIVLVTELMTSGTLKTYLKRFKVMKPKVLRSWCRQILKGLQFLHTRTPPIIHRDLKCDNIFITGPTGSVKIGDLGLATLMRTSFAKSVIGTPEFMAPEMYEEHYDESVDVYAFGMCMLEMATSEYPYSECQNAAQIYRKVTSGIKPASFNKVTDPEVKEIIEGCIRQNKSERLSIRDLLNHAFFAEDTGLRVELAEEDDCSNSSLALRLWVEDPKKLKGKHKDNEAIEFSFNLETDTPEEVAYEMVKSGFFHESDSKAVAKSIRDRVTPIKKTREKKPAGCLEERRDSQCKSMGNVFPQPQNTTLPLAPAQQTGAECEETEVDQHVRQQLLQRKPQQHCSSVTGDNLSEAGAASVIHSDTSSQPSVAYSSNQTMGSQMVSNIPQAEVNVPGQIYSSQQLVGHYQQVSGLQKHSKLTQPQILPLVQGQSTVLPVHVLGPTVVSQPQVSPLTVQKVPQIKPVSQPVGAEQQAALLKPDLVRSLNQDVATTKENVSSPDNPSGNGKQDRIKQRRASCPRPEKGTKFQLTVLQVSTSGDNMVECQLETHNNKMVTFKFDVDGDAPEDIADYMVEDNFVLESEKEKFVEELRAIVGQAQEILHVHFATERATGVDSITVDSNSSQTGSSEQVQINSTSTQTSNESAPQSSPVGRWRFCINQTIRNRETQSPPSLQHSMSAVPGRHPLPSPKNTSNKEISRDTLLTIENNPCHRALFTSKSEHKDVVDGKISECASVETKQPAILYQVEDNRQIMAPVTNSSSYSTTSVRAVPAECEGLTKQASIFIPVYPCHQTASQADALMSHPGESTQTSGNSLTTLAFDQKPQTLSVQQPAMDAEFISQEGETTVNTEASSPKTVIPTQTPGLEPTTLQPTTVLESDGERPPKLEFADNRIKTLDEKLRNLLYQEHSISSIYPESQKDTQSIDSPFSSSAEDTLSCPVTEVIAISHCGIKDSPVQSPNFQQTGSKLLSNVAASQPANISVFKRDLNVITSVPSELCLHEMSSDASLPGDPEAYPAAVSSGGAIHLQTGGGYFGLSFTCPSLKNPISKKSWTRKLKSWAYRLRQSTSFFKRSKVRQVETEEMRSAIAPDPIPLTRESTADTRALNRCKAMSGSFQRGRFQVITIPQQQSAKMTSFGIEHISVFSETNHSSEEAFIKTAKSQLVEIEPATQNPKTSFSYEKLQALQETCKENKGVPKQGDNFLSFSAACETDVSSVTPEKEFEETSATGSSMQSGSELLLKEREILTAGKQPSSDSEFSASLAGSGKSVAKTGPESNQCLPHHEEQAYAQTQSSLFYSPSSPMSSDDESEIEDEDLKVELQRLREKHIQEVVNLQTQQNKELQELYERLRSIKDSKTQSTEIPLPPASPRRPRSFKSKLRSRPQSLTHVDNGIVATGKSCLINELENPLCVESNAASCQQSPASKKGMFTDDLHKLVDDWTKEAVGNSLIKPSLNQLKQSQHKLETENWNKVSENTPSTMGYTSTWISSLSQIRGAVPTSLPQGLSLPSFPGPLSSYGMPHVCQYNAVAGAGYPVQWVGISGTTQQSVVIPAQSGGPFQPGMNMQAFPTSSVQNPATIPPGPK
UniProt Q9HCS7: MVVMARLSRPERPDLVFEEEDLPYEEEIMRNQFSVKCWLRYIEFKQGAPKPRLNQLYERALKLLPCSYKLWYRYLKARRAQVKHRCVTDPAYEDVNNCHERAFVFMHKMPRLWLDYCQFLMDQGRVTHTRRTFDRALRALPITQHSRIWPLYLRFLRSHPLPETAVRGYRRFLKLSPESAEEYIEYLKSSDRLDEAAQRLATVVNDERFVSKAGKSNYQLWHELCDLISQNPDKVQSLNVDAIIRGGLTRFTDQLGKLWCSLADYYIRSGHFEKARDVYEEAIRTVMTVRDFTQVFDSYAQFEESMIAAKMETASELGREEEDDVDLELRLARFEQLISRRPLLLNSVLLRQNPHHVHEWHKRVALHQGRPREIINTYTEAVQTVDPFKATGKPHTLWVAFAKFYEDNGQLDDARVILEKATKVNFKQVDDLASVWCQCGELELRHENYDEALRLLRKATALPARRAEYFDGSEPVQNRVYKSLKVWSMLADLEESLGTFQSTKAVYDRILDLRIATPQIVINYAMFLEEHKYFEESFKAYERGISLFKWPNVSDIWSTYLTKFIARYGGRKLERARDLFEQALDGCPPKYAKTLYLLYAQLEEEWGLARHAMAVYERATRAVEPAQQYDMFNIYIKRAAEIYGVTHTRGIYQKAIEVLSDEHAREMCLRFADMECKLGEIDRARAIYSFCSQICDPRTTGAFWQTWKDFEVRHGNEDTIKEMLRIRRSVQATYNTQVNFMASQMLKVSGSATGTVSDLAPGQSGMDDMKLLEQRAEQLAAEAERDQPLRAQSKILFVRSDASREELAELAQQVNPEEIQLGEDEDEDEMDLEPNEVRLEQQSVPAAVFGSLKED
UniProt Q7Z5K2, 901-924: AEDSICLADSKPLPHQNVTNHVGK
UniProt Q9Y2Z4, 395-414: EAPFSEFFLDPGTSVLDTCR
UniProt Q9ULM3, 1111-1130: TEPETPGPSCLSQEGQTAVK
UniProt Q8IV63, 175-197: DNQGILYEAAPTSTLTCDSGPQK
UniProt Q9NRH1: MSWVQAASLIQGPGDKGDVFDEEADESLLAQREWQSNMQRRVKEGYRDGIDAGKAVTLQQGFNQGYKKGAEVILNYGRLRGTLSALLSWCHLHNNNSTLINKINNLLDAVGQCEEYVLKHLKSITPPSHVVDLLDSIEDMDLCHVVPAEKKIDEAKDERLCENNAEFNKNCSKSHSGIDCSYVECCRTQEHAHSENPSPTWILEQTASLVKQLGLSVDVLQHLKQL
UniProt Q96C00, 1-21: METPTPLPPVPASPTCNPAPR
UniProt O76024, 1-24: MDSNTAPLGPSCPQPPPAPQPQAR

[2] = compound: ClCC(=O)N[C@H]1CCCc2ccccc12; test: as above; conditions: treatment time: 4 h, cell line lysate: HEK293T
Description: as §1

Target	log2 mean competition ratio ([1]; 50 µM)	log2 mean competition ratio ([1]; 200 µM)	log2 mean competition ratio ([2]; 50 µM)	log2 mean competition ratio ([2]; 200 µM)
XPC C60 (UniProt Q01831)	-0.0141	-0.384	0.237	-0.0691
WDR33 C249 (UniProt Q9C0J8)	-0.179	0.0945	-0.705	-0.046
VRK1 C220 (UniProt Q99986)	-0.325	0.523	-0.356	0.169
YTHDC2 C1211 (UniProt Q9H6S0)	-0.263	0.592	-0.259	0.381
WDR54 C256 (UniProt Q9H977)	-0.402	-0.375	-0.282	0.158
XPO5 C419 (UniProt Q9HAV4)	0.0735	0.106	-0.0384	0.111
VPS41 C638 (UniProt P49754)	-0.124	0.863	-0.136	0.659
VPS51 C421 (UniProt Q9UID3)	-0.0654	-0.258	-0.308	-0.0761
WDR3 C554 (UniProt Q9UNX4)	0.0235	-0.0912	0.15	-0.298
YWHAH C112 (UniProt Q04917)	0.0727	-0.269	-0.103	-0.276
ZBTB21 C152 (UniProt Q9ULJ3)	0.165	-0.0628	0.447	-0.0309
ZBTB21 C378 (UniProt Q9ULJ3)	-0.279	-0.133	0.134	0.234
WDHD1 C180 (UniProt O75717)	-0.267	-0.179	0.374	0.109
XPO1 C723 (UniProt O14980)	-0.0418	-0.299	0.26	-0.427
XRN1 C1304 (UniProt Q8IZH2)	0.00295	0.314	0.19	0.331
ZC3H7A C575 (UniProt Q8IWR0)	0.421	-0.184	0.646	-0.493
ZBTB44 C272 (UniProt Q8NCP5)	-0.112	-0.101	0.0246	-0.113
WDR17 C399	-0.431	-0.126	0.00851	0.416
XPO6 C886 (UniProt Q96QU8)	-0.129	0.427	-0.173	0.358
YTHDC2 C1265 (UniProt Q9H6S0)	-0.118	0.1	-0.168	-0.0101
VPS35L C214 (UniProt Q7Z3J2)	-0.182	-0.273	-0.219	-0.16
WNK2 C411 (UniProt Q9Y3S1)	0.348	0.0565	0.565	0.0837
ZBED4 C916 (UniProt O75132)	0.0338	0.158	-0.0491	0.0483
WIPI2 C430 (UniProt Q9Y4P8)	0.0722	-0.566	0.236	-0.052
ZC3H13 C1046 (UniProt Q5T200)	-0.0891	-0.102	0.353	0.146

Target	log2 mean competition ratio ([1]; 50 µM)	log2 mean competition ratio ([1]; 200 µM)	log2 mean competition ratio ([2]; 50 µM)	log2 mean competition ratio ([2]; 200 µM)
VPS8 C286 (UniProt Q8N3P4)	-0.0442	0.0661	-0.358	0.141
ZBTB33 C431 (UniProt Q86T24)	-0.0668	0.152	-0.0612	0.201
WDCP C472 (UniProt Q9H6R7)	0.527	0.448	0.21	0.367
VSNL1 C187	0.317	-0.91	0.401	-0.207
WASHC2C C828	0.0104	-0.0924	-0.221	-0.00983
YDJC C18 (UniProt A8MPS7)	-0.176	0.209	0.0966	0.0935
WNK3 C927 (UniProt Q9BYP7)	-0.0936	0.122	0.32	0.0942
YARS1 C519	-0.0997	0.0488	0.158	0.0735
VPS35 C286	-0.223	-0.244	-0.202	-0.217
XAB2 C676 (UniProt Q9HCS7)	-0.116	0.311	-0.0029	0.317
WTAP C90 (UniProt Q15007)	-0.143	-0.344	-0.00433	-0.218
XPO4 C54 (UniProt Q9C0E2)	-0.0781	-0.00442	-0.106	-0.0188
ZC3H7A C149 (UniProt Q8IWR0)	0.372	0.0865	0.0897	-0.0996
WBP2 C80 (UniProt Q969T9)	0.287	-0.176	0.214	0.11
WDR36 C866 (UniProt Q8NI36)	0.121	-0.179	0.25	-0.0503
WDR46 C172	-0.314	0.00535	-0.0504	-0.0898
ZBTB44 C151 (UniProt Q8NCP5)	-0.23	0.493	-0.2	0.387
WAPL C906 (UniProt Q7Z5K2)	-0.0794	0.0571	-0.519	-0.209
WIPI2 C393 (UniProt Q9Y4P8)	-0.259	-0.209	0.203	-0.522
WDR76 C527 (UniProt Q9H967)	0.141	-0.165	-0.163	-0.186
VPS53 C764 (UniProt Q5VIR6)	-0.0668	-0.167	-0.161	-0.00988
WASHC4 C936 (UniProt Q2M389)	0.452	-0.00583	0.402	-0.101
XPR1 C188 (UniProt Q9UBH6)	0.409	0.53	0.532	0.421
VPS4B C62 (UniProt O75351)	-0.194	-0.0557	-0.207	0.135
YARS2 C413 (UniProt Q9Y2Z4)	-0.206	-0.564	0.00505	0.206

Target	log2 mean competition ratio ([1]; 50 µM)	log2 mean competition ratio ([1]; 200 µM)	log2 mean competition ratio ([2]; 50 µM)	log2 mean competition ratio ([2]; 200 µM)
YEATS2 C1120 (UniProt Q9ULM3)	-0.267	-0.0572	-0.287	-0.0949
WNK3 C278 (UniProt Q9BYP7)	-0.133	-0.144	-0.0512	-0.0785
XPO5 C1131 (UniProt Q9HAV4)	0.11	0.165	0.51	0.226
VPS53 C242 (UniProt Q5VIR6)	-0.188	-0.186	-0.294	0.0655
VPS51 C190 (UniProt Q9UID3)	0.0212	-0.225	-0.0973	-0.144
VRK3 C191 (UniProt Q8IV63)	-0.235	0.55	-0.117	0.233
WRN C1299 (UniProt Q14191)	0.294	0.147	0.124	0.16
XPO6 C299 (UniProt Q96QU8)	-0.298	0.335	-0.398	0.736
YDJC C182 (UniProt A8MPS7)	-0.0796	0.135	0.163	0.0848
WDFY3 C36 (UniProt Q8IZQ1)	0.12	0.0911	-0.236	-0.102
YTHDC2 C245 (UniProt Q9H6S0)	-0.00239	-0.0633	0.353	0.125
VPS37A C325 (UniProt Q8NEZ2)	-0.23	0.164	0.322	-0.0326
ZBED4 C8 (UniProt O75132)	0.0388	0.0289	-0.103	-0.0284
WDR6 C26 (UniProt Q9NNW5)	0.11	-0.0254	0.0434	0.0297
WDR81 C215 (UniProt Q562E7)	0.135	-0.112	0.362	0.0348
WNK3 C1406 (UniProt Q9BYP7)	-0.103	0.0491	0.253	0.0959
XPO7 C123	0.156	-0.108	-0.168	-0.0677
YAE1 C161 (UniProt Q9NRH1)	-0.13	0.182	-0.303	0.296
WASL C431 (UniProt O00401)	0.247	0.245	0.0358	0.0261
WDR43 C315 (UniProt Q15061)	0.0967	-0.00183	-0.0966	-0.149
WRN C771 (UniProt Q14191)	0.235	0.528	0.259	0.324
YDJC C170 (UniProt A8MPS7)	0.218	-0.00631	0.333	0.172
VPS35L C315 (UniProt Q7Z3J2)	-0.0675	-0.0864	-0.137	-0.0214
VPS51 C714 (UniProt Q9UID3)	-0.0975	-0.112	0.18	-0.115
WAPL C344 (UniProt Q7Z5K2)	0.098	-0.0183	0.062	0.0824

Target	log2 mean competition ratio ([1]; 50 µM)	log2 mean competition ratio ([1]; 200 µM)	log2 mean competition ratio ([2]; 50 µM)	log2 mean competition ratio ([2]; 200 µM)
VWA8 C162 (UniProt A3KMH1)	0.0287	-0.0178	-0.0809	-0.157
XPR1 C620 (UniProt Q9UBH6)	-0.011	0.17	-0.204	-0.272
XYLT1 C285 (UniProt Q86Y38)	-0.486	-0.107	-0.34	-0.0745
WNK2 C1153 (UniProt Q9Y3S1)	0.622	-0.12	0.401	-0.00271
VPS8 C15 (UniProt Q8N3P4)	-0.38	0.026	-0.3	0.058
ZBTB21 C911 (UniProt Q9ULJ3)	0.243	-0.257	0.0663	-0.179
XPOT C38	0.124	-0.134	0.0461	-0.201
WWP1 C335	-0.267	0.332	-0.341	0.162
WEE1 C19 (UniProt P30291)	0.233	0.0711	0.183	0.0558
XRN1 C398 (UniProt Q8IZH2)	0.0181	0.556	0.0715	-0.331
WDR59 C677 (UniProt Q6PJI9)	0.236	0.431	-0.374	-0.179
YLPM1 C775 (UniProt P49750)	0.345	-0.469	0.382	-0.287
WDR11 C1000 (UniProt Q9BZH6)	-0.203	-0.0687	-0.145	-0.152
ZBTB9 C16 (UniProt Q96C00)	-0.194	-0.401	0.146	-0.0818
WFS1 C12 (UniProt O76024)	-0.422	-0.0842	0.257	-0.00298
VWA8 C416 (UniProt A3KMH1)	-0.101	0.0225	0.404	0.0943
WDR3 C183 (UniProt Q9UNX4)	-0.0999	-0.0617	-0.367	-0.0568
XPO7 C767	0.421	0.193	0.0405	0.0977
WASF2 C27 (UniProt Q9Y6W5)	0.244	-0.0814	0.178	-0.0903
WDR41 C166 (UniProt Q9HAD4)	-0.166	-0.000811	0.165	-0.0712
XRCC6 C398 (UniProt P12956)	-0.357	0.55	-0.121	0.193
ZBTB11 C39 (UniProt O95625)	0.196	-0.158	0.251	0.0215

Some values from the results shown:
For log2 mean competition ratio ([1]; 200 µM), WNK3 C927 (UniProt Q9BYP7) has the entry 0.122
For log2 mean competition ratio ([2]; 50 µM), WNK2 C411 (UniProt Q9Y3S1) has the entry 0.565
For log2 mean competition ratio ([1]; 50 µM), ZBTB21 C152 (UniProt Q9ULJ3) has the entry 0.165
For log2 mean competition ratio ([1]; 50 µM), ZBTB21 C911 (UniProt Q9ULJ3) has the entry 0.243
